From the supplement of paper PMC12067093, “Discovery and optimisation of a covalent ligand for TRIM25 and its application to targeted protein ubiquitination” (Chemical Science, 2025)
The list shows a part of the results.

Chains of the proteins cited; added tags and fusions are not shown. Lines headed by an entry give the natural chain unless they say otherwise; changes in a name come on top.
UniProt Q9Y4E5: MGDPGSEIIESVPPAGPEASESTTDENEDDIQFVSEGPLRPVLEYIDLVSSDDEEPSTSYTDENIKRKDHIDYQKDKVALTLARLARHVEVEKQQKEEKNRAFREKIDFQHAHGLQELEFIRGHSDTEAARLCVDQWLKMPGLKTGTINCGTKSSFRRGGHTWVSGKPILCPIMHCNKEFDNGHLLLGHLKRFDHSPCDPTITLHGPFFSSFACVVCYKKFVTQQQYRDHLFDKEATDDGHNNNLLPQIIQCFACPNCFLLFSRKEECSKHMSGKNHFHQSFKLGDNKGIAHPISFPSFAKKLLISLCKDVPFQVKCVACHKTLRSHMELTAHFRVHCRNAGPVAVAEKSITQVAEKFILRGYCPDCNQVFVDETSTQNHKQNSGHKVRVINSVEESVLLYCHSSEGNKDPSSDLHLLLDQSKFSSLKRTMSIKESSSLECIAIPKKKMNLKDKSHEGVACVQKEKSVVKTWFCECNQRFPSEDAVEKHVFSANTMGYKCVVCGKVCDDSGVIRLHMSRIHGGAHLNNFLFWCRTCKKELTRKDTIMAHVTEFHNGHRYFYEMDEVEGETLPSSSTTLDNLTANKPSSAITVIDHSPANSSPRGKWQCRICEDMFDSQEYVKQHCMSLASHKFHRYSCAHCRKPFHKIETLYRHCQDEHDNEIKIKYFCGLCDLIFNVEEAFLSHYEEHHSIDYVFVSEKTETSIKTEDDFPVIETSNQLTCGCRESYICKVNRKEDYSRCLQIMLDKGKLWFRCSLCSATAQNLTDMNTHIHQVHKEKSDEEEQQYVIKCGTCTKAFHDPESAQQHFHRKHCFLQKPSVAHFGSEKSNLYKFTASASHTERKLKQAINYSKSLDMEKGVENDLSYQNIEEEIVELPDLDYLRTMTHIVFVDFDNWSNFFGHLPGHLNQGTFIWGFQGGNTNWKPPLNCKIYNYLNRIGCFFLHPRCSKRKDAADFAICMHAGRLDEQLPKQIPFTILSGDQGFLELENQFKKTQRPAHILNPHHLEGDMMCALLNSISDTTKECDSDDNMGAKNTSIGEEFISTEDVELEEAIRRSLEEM
UniProt Q8WV99: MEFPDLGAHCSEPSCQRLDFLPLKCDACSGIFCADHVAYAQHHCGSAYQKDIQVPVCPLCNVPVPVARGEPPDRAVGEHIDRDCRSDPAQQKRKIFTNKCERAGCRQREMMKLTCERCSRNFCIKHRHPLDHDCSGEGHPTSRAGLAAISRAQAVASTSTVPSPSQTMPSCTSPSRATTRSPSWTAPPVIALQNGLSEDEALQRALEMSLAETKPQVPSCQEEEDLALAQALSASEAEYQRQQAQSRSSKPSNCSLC
UniProt Q9UK33: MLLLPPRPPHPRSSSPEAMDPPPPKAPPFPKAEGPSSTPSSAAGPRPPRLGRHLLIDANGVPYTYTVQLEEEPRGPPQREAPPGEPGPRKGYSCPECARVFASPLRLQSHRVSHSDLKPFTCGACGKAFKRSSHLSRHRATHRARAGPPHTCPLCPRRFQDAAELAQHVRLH
UniProt P08048: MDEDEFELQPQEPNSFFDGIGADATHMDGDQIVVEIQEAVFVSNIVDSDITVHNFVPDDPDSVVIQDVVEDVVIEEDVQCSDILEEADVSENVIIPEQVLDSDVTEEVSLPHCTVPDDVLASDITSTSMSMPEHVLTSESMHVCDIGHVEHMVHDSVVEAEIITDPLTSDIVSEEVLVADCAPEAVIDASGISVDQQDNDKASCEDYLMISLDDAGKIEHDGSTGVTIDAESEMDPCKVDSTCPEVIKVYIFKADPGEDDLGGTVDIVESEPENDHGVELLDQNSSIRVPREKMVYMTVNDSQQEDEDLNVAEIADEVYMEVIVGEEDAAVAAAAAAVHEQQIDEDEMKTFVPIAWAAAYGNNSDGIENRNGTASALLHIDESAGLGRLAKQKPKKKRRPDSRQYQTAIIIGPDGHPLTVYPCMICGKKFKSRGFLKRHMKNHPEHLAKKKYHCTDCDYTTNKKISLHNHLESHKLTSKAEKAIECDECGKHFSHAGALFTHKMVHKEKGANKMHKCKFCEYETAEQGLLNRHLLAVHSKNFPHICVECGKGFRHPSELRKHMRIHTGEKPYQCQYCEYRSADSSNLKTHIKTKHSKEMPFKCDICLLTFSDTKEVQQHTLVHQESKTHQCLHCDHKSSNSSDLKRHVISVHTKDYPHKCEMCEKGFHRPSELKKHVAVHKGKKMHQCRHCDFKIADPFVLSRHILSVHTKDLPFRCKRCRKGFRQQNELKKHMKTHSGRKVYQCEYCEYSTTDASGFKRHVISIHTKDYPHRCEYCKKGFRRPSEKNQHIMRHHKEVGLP
UniProt O95159: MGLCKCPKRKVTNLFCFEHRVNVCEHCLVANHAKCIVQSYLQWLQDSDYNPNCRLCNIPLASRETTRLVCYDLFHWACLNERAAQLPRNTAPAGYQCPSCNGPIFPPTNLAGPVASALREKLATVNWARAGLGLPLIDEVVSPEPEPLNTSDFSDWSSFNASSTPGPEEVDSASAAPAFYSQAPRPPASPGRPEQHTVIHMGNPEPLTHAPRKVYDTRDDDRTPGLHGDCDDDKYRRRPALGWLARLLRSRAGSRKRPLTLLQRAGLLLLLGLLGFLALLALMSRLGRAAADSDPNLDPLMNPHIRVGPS
UniProt Q9Y3S2: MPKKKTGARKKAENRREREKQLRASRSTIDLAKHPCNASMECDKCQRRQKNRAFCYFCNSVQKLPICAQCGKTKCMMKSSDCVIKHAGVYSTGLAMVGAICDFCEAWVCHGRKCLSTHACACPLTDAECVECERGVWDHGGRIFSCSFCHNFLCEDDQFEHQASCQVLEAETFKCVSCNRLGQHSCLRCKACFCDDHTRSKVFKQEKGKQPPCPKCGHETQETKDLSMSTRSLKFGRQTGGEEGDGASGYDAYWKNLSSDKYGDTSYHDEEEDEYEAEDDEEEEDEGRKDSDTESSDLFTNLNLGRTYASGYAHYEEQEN
UniProt Q96C55: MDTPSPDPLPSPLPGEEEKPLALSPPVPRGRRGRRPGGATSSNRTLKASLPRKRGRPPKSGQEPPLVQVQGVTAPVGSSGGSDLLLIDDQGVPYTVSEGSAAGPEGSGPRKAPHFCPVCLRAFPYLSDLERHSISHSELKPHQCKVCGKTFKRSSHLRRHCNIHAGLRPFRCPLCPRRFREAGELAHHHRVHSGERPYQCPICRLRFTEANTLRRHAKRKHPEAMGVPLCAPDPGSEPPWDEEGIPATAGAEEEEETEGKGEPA
UniProt Q9H2Y7: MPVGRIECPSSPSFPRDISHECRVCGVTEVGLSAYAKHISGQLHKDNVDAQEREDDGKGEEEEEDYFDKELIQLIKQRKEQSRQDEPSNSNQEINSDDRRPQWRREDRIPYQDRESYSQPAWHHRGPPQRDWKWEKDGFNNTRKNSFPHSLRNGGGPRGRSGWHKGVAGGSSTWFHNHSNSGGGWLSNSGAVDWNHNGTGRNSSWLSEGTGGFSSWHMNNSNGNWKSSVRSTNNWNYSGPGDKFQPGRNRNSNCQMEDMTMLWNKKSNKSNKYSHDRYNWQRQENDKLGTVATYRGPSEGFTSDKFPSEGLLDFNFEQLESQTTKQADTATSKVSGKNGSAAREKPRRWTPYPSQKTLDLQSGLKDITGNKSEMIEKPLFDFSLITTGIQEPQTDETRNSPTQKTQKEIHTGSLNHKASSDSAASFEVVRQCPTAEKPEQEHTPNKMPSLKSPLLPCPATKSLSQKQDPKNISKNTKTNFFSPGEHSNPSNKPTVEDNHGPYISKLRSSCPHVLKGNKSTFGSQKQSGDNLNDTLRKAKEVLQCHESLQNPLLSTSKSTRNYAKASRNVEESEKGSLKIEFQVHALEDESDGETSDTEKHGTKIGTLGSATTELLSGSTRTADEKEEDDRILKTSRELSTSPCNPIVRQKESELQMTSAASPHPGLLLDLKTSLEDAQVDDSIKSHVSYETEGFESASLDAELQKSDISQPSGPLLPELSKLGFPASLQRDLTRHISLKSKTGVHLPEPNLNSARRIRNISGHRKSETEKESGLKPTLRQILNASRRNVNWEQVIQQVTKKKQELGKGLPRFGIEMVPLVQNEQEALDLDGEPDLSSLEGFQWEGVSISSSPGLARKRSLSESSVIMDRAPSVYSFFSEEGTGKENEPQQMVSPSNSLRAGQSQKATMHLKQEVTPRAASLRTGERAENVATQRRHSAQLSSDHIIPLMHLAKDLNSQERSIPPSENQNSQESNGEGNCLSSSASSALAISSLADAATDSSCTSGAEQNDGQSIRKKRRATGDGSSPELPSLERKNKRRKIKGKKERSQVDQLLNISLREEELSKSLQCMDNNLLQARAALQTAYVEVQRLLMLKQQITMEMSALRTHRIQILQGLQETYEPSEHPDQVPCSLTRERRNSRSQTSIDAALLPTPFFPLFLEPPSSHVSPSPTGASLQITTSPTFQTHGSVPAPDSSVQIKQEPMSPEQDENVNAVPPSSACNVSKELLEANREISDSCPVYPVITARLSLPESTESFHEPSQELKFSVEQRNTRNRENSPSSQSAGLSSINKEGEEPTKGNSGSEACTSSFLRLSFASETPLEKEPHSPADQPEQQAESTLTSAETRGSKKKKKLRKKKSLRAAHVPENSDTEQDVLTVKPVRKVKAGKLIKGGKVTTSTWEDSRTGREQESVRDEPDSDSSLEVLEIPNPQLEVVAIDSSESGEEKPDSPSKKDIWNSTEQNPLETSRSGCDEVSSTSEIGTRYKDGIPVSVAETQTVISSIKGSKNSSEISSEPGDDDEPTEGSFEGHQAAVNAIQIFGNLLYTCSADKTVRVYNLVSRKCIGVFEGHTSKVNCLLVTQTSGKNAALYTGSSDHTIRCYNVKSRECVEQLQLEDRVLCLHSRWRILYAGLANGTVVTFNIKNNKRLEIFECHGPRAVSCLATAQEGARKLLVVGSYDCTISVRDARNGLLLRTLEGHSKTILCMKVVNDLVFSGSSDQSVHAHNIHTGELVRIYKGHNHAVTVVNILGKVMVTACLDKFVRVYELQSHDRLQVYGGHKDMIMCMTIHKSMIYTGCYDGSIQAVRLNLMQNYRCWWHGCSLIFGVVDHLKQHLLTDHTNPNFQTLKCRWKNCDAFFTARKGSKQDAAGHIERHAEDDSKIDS
UniProt Q9UEG4: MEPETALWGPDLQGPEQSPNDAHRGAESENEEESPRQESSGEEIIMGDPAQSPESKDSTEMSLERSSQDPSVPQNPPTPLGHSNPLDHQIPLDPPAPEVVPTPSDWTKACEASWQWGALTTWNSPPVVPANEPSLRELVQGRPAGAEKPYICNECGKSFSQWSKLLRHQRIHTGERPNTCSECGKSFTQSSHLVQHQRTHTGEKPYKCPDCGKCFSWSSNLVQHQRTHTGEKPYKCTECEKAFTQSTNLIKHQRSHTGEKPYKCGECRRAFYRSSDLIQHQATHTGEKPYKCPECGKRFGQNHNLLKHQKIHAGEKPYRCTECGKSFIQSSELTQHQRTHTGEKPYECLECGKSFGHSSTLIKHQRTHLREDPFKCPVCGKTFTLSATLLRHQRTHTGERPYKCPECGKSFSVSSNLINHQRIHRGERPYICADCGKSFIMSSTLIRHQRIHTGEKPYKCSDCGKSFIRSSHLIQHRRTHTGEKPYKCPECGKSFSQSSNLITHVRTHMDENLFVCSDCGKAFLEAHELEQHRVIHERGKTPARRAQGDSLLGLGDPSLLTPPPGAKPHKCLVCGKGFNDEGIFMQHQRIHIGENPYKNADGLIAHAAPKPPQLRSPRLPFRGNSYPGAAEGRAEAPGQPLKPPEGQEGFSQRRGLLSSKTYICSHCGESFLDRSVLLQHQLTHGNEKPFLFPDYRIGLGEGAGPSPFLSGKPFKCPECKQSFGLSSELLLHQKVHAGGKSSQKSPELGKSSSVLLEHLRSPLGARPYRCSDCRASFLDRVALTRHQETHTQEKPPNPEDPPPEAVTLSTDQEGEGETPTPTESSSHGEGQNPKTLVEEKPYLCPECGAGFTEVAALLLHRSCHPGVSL
UniProt P47974: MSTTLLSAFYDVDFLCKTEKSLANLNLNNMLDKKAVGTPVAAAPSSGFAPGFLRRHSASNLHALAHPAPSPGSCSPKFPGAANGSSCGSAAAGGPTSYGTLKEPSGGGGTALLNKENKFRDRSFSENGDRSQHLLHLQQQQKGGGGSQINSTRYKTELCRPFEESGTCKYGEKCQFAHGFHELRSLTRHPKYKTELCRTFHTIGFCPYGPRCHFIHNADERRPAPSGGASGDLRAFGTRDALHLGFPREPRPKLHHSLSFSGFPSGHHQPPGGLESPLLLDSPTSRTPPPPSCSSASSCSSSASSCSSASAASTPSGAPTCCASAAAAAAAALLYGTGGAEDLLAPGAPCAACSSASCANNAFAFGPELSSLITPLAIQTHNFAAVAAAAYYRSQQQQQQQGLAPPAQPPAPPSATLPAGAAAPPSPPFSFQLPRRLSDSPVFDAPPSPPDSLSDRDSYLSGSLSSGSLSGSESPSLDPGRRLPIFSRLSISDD

Compound: CC1Cc2ccccc2N1C(=O)C1CCCN(C1)C(=O)CCl (mixture of isomers) [TRIM25 ligand 11 (diastereomer mixture)]
Assay: probe-labelled cysteine peptide fold change vs DMSO (competition) (log2 fold change); higher = less target engagement (more negative = stronger competition)
Settings: THP-1, incubation time: 4 h
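Note: competitive chemoproteomic profiling in live THP-1 cells with an iodoacetamide desthiobiotin (IA-DTB) probe, comparing probe-labelled peptide intensities in compound-treated cells against DMSO-treated controls.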

Row | Target | probe-labelled cysteine peptide fold change (10 µM) | probe-labelled cysteine peptide fold change (50 µM)
1 | ZNF670_Q9BS34_339_THTGVKPYGCK (UniProt Q9BS34) | -0.11 | -0.0364
2 | ZNF101_Q8IZC7_321_CPTSLQAHER (UniProt Q8IZC7) | 0.124 | -0.0291
3 | ZNF687_Q8N1G0_1003_SFCSAPSLR (UniProt Q8N1G0) | -0.0505 | 0.0179
4 | ZNF281_Q9Y2X9_291+294_HVLIHTGERPFQCSQCSMGFIQK (UniProt Q9Y2X9) | -0.0527 | 0.0267
5 | ZMIZ1_Q9ULJ6_763_HVQCFDLESYLQLNCER (UniProt Q9ULJ6) | 0.0282 | 0.043
6 | ZNF451_Q9Y4E5_461_SHEGVACVQK (UniProt Q9Y4E5) | -0.00533 | -0.176
7 | ZNF217_O75362_697_PLNLSVGALHNCPAISLSK (UniProt O75362) | -0.0727 | 0.0836
8 | ZNF274_Q96GC6_361_DCALSSTLEDTLQGGVQEVQDTVLK (UniProt Q96GC6) | 0.0477 | -0.0417
9 | ZNF22_P17026_113_CDECGESFK (UniProt P17026) | -0.0931 | 0.00444
10 | ZFAND2B_Q8WV99_134_HRHPLDHDCSGEGHPTSR (UniProt Q8WV99) | -0.252 | 0.202
11 | ZFR_Q96KR1_391_CELCDVSCTGADAYAAHIR (UniProt Q96KR1) | -0.000822 | 0.0195
12 | ZNF580_Q9UK33_122_VSHSDLKPFTCGACGK (UniProt Q9UK33) | -0.051 | -0.0384
13 | ZNF460_Q14592_313_KPFACSECGK (UniProt Q14592) | 0.0432 | 0.174
14 | ZMYM3_Q14202_1106_IKEDILACSAAELNYGLAQFVR (UniProt Q14202) | 0.0186 | -0.0446
15 | ZNF592_Q92610_463_ASDSSSPSCSSGPR (UniProt Q92610) | -0.0788 | -0.166
16 | ZFYVE26_Q68DK2_60_RVEDILQALVVCPNLLR (UniProt Q68DK2) | -0.164 | -0.114
17 | ZNF207_O43670_54_KLYTGPGLAIHCMQVHK (UniProt O43670) | -0.6 | -0.388
18 | ZFY_P08048_549_NFPHICVECGK (UniProt P08048) | 0.00079 | -0.0448
19 | ZFPL1_O95159_230_DDDRTPGLHGDCDDDK (UniProt O95159) | -0.0658 | 0.079
20 | ZNF143_P52747_299+304_CSEDNCTK (UniProt P52747) | 0.23 | 0.244

Row | Target | probe-labelled cysteine peptide fold change (10 µM) | probe-labelled cysteine peptide fold change (50 µM)
21 | ZNF451_Q9Y4E5_150_TGTINCGTK (UniProt Q9Y4E5) | -0.067 | -0.185
22 | ZNF330_Q9Y3S2_114_CLSTHACACPLTDAECVECER (UniProt Q9Y3S2) | 0.143 | -0.00405
23 | ZNF524_Q96C55_161_HCNIHAGLRPFR (UniProt Q96C55) | 0.188 | -0.16
24 | ZNF451_Q9Y4E5_176_GGHTWVSGKPILCPIMHCNK (UniProt Q9Y4E5) | -0.0488 | -0.131
25 | ZFPL1_O95159_70_LVCYDLFHWACLNER (UniProt O95159) | 0.038 | 0.00577
26 | ZNF106_Q9H2Y7_1238_EISDSCPVYPVITAR (UniProt Q9H2Y7) | 0.142 | -0.124
27 | ZFP91_Q96JP5_182_TGSLQLICK (UniProt Q96JP5) | -0.203 | -0.257
28 | ZMIZ2_Q8NF64_418_SPFLPDLKPNLNSLHSSPSGSGPCDELR (UniProt Q8NF64) | 0.0184 | -0.465
29 | ZMYND11_Q15326_126_CLSDEFR (UniProt Q15326) | 0.0207 | 0.0739
30 | ZNF106_Q9H2Y7_1131_IQILQGLQETYEPSEHPDQVPCSLTR (UniProt Q9H2Y7) | 0.268 | 0.108
31 | ZNF672_Q499Z4_204_VSDAHQCGVCGK (UniProt Q499Z4) | -0.00755 | 0.0229
32 | ZNF629_Q9UEG4_214_CFSWSSNLVQHQR (UniProt Q9UEG4) | -0.0363 | 0.199
33 | ZNF326_Q5BKZ1_314+317_MAFTCSFCK (UniProt Q5BKZ1) | -0.0558 | -0.043
34 | ZNF512_Q96ME7_442_CLLCQK (UniProt Q96ME7) | 0.166 | 0.0979
35 | ZFP36L2_P47974_174_CQFAHGFHELR (UniProt P47974) | 0.0485 | -0.124
36 | ZNF330_Q9Y3S2_216_CGHETQETK (UniProt Q9Y3S2) | -0.00941 | -0.143
37 | ZNF451_Q9Y4E5_476_TWFCECNQR (UniProt Q9Y4E5) | 0.206 | 0.141
38 | ZNF280C_Q8ND82_358_QNNESWENHTTCQHCYR (UniProt Q8ND82) | 0.21 | 0.159
39 | ZNF106_Q9H2Y7_1307_GNSGSEACTSSFLR (UniProt Q9H2Y7) | -0.265 | -0.0979
